In paper PMC4691890:
No constants are given. Whether binding was seen depends on the method and setting.

The chains behind the UniProt entries cited, without tags or fusion partners. Where a name states a change or a piece, a line headed by the entry shows the natural chain unless it says otherwise. A line that says so, or that is headed by a name, gives the form on record, which may keep a tag or linker.
UniProt O14727: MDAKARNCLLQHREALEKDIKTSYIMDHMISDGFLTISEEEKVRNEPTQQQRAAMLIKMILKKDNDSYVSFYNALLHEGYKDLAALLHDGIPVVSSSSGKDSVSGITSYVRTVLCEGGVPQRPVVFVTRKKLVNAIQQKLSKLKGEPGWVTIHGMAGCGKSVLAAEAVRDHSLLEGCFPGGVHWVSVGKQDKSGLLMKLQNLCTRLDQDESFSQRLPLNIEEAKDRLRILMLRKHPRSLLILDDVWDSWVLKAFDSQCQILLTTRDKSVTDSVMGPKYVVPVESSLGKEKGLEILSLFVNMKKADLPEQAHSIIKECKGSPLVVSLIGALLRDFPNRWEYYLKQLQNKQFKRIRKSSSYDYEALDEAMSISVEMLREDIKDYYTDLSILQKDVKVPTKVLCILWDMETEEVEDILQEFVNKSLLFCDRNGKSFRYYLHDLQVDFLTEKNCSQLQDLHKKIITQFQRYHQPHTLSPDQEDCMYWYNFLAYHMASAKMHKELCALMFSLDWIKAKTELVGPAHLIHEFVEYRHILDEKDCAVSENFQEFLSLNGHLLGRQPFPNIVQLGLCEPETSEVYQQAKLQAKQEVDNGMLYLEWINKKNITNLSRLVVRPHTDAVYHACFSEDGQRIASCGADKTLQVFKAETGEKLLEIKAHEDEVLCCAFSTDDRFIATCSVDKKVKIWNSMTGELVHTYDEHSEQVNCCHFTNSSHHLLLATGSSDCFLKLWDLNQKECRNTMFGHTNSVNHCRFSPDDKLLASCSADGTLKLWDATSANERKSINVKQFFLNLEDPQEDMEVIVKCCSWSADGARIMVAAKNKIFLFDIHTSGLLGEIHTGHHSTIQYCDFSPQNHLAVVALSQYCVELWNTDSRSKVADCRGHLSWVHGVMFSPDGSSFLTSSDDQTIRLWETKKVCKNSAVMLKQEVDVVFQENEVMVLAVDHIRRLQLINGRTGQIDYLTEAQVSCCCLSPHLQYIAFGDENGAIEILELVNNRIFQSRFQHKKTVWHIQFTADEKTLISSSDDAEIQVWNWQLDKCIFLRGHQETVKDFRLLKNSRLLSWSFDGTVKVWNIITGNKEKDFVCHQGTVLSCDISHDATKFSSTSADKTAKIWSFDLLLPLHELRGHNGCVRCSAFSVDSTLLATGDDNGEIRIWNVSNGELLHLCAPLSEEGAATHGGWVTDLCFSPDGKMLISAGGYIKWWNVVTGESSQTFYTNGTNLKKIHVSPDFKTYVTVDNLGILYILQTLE
UniProt P00004: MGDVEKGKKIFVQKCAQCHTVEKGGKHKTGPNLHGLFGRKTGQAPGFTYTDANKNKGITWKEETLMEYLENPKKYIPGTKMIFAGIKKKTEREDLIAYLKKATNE
horse CytC G56K (P00004, form named): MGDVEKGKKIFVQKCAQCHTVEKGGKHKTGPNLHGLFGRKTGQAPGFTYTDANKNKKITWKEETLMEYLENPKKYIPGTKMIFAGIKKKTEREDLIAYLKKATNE
horse CytC I81E (P00004, form named): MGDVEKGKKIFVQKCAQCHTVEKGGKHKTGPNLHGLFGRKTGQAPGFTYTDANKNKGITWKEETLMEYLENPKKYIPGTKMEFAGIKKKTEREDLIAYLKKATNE
horse CytC P76E (P00004, form named): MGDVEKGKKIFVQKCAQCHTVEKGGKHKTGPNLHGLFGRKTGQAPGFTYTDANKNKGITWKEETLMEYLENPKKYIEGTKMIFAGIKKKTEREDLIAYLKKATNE

What was measured:
[1] = target: full-length human Apaf-1 (residues 1–1248) (human) (UniProt O14727); assay: SEC; gel filtration of apoptosome formation: Apaf-1 with CytC in the presence of 1 mM dATP; both purified
[2] = target: full-length human Apaf-1 (residues 1–1248) (human) (UniProt O14727); assay: SEC; Apaf-1 incubated with CytC at a molar ratio of 1:2, Superdex-200 increase 5/150; 100 mM KCl, 20 mM HEPES pH 7.5, 5 mM DTT; fractions on SDS-PAGE; no dATP named; both purified
[3] = target: full-length human Apaf-1 (residues 1–1248) (human) (UniProt O14727); assay: ITC; Apaf-1 4 μM, CytC 60 μM; 100 mM KCl, 20 mM HEPES pH 7.5; 22°C; VP-ITC; both purified

Row | binding [1] | binding [2] | Substance | binding [3]
1 | no binding | no binding (tested: molar ratio of 1:2) | horse CytC G56K (from UniProt P00004 1-105) | no binding (tested: Apaf-1 4 μM, CytC 60 μM)
2 | no binding | no binding (tested: molar ratio of 1:2) | horse CytC I81E (from UniProt P00004 1-105) | no binding (tested: Apaf-1 4 μM, CytC 60 μM)
3 | no binding | no binding (tested: molar ratio of 1:2) | horse CytC P76E (from UniProt P00004 1-105) | no binding (tested: Apaf-1 4 μM, CytC 60 μM)
